The text below walks through data of PubChem BioAssay AID434947 (Broad Institute, 2010).

Among all 2,200 compounds or so, about 15 (0.7%) were called active.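 How the source made its calls: active means fitted half-maximal concentration for loss of luminescence signal no more than a set limit of log units above the top tested concentration; inconclusive means flat fit with 30 to 70% signal loss, or invalid fit; inactive means half-maximal concentration above that set limit.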 The list shows a part of the results.

Broadly, the EC50 is the concentration at which the effect is half-maximal.

A short description of the test: inhibitors of ADP-Glo detection reagents, dose response, artefact control for GSK3beta inhibitor project, biochemical, luminescence, cell-free, homogeneous (AID 434947).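 Further: kinase-free counter screen of ADP-Glo detection reagents for GSK3beta hits.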 The conditions noted are these: 5 uM ADP. A general note: In ADP-Glo the light output rises with the ADP produced.
Consider `COc1cccc(C(=O)CSc2nccn2C)c1`, for which the EC50 is inactive: > 30 µM.

Regarding `O=C(N/N=C/c1ccc2nccnc2c1)c1ccncc1`, the EC50 was inactive: > 30 µM.

In the case of `CCCCn1nc(NC(=O)c2cccs2)c2cc3ccccc3nc21`, the EC50 was inactive: > 30 µM.

`COc1cc(/C=C2/SC(=Nc3ccc(O)cc3)NC2=O)ccc1O`: the EC50 is inactive: > 30 µM.

For `COc1ccc(CC(=O)Nc2nc(-c3ccccc3)c(C(C)=O)s2)cc1OC`, the EC50 was inactive: > 30 µM.

Regarding `CCCSCCCNC(=O)Cn1nc(CC)n2c(cc3c(OC)cccc32)c1=O`, the EC50 is inactive: > 30 µM.

Take `COc1ccc(NC(=O)Nc2ccccn2)cc1OC`: the EC50 is inactive: > 30 µM.

For `CCOC(=O)C1=C(C)Nc2ncnn2C1/C=C/c1ccccc1` (centres undefined), the EC50 was inactive: > 30 µM.

Consider `CC(C)(C)NC(=O)NC(=O)COc1ccc(Br)cc1Br`, for which the EC50 is inactive: > 30 µM.

On to `CCN(CC)Cc1c(C(=O)N/N=C/c2ccccn2)nnn1-c1nonc1N`, for which the EC50 is inactive: > 30 µM.

Regarding `CCOc1ccc(CNC(=O)C2CCN(c3nnc(C)c4c(C)n(-c5ccc(C)cc5)nc34)CC2)cc1`, the EC50 is inactive: > 30 µM.

On to `O=c1c(O[C@@H]2O[C@H](CO)[C@@H](O)[C@H](O)[C@H]2O)c(-c2ccc(O)c(O)c2)oc2cc(O)cc(O)c12`, for which the EC50 is inactive: > 30 µM.

Consider `CCN1CCN(C(=O)c2ccc3c(c2)N(Cc2ccc(F)cc2)C(=O)c2ccccc2S3=O)CC1` (centres undefined), for which the EC50 is inactive: > 30 µM.

On to `Fc1ccc(CSc2nnc(-c3cccnc3)o2)cc1`, for which the EC50 is inactive: > 30 µM.

As for `O=Cc1cn(CCC(=O)O)nc1-c1cccc(Br)c1`, the EC50 is inactive: > 30 µM.

Turning to `CC(C)N1CCc2c(sc(NC(=O)CCc3ccccc3)c2C(N)=O)C1`, the EC50 is inactive: > 30 µM.

Regarding `Nc1nnc(CC(=O)N/N=C/c2ccccc2OCc2ccc(F)cc2)s1`, the EC50 was inactive: > 30 µM.

On to `CCOC(=O)c1cnc2ccccc2c1Nc1ccc(C(=O)O)cc1`, for which the EC50 is inactive: > 30 µM.

Take `Cc1ccccc1CSc1nnc(-c2ccncc2)o1`: the EC50 is inactive: > 30 µM.

As for `O=C(O)CCn1cc(/C=N/O)c(-c2cccc([N+](=O)[O-])c2)n1`, the EC50 was inactive: > 30 µM.

As for `Clc1ccc(/C=N/Nc2ncnc3nc[nH]c23)cc1`, the EC50 is inactive: > 30 µM.

Consider `CC(=O)N(\C=C/C=C/C=C1\Sc2ccccc2C1=O)c1ccccc1`, for which the EC50 was inactive: > 30 µM.

Take `COc1ccc(C(=O)c2coc3ccc(O)c(CN4CCCC4)c23)cc1`: the EC50 is inactive: > 30 µM.

As for `Nc1nonc1-n1nnc(C(=O)N/N=C\c2ccncc2)c1CN1CCCCC1`, the EC50 is inactive: > 30 µM.

With `CC1(C)CC(=O)C(C2(O)C(=O)Nc3ccccc32)CO1` (centres undefined), the EC50 is inactive: > 30 µM.

As for `CSc1nc(N)c2c3c(sc2n1)CN(C)CC3`, the EC50 was inactive: > 30 µM.

Consider `O=[N+]([O-])c1ccc2ccn(C3OCC(O)C(O)C3O)c2c1` (centres undefined), for which the EC50 was inactive: > 30 µM.

For the molecule `O=C(OCCCCOC(=O)c1ccccc1)c1ccccc1`, the EC50 is inactive: > 30 µM.

For `Cc1cc(C)cc(NC(=O)NCC2CCN(Cc3cc(C)ccc3C)CC2)c1`, the EC50 is inactive: > 30 µM.

For the molecule `O=C(Nc1ccccc1C(=O)O)c1ncn[nH]1`, the EC50 was inactive: > 30 µM.

With `CN(C)CCCNc1nc(N)c([N+](=O)[O-])c(NC2CCCCC2)n1`, the EC50 is inactive: > 30 µM.

On to `CCNc1nc(N)c(C(=O)C23CC4CC(CC(C4)C2)C3)s1`, for which the EC50 was inactive: > 30 µM.

`COc1cccc2c1cc1c(=O)n(CC(=O)NCCCN3CCN(C)CC3)nc(C)n12`: the EC50 was inactive: > 30 µM.

On to `O=C1Nc2cc(C(=O)NCC3CCCO3)ccc2S/C1=C/c1ccccc1F` (centres undefined), for which the EC50 is inactive: > 30 µM.

Consider `O=C(Nc1cccc2c1C(=O)NC2=O)c1ccc(N2C(=O)CCC2=O)cc1`, for which the EC50 is inactive: > 30 µM.

Consider `Cc1cccc(-n2c(=O)c3c4c(sc3n3c(=S)[nH]nc23)CCC4)c1`, for which the EC50 was inactive: > 30 µM.

Regarding `O=C(NCC(c1ccco1)N1CCOCC1)c1cccc(Cl)c1` (centres undefined), the EC50 was inactive: > 30 µM.

Regarding `CC1CCN(Cc2c(C(=O)N/N=C/c3ccccc3O)nnn2-c2nonc2N)CC1`, the EC50 is inactive: > 30 µM.

`O=[N+]([O-])c1cc(/C=N/O)ccc1Oc1ccccc1Cl`: the EC50 was inactive: > 30 µM.

For the molecule `Cc1ccc(C2C3=C(CC(C)(C)CC3=O)Nc3[nH]c(=S)[nH]c(=O)c32)cc1` (centres undefined), the EC50 was inactive: > 30 µM.

Consider `CC1CCc2c(sc(Nc3nc4c(F)cccc4s3)c2C(N)=O)C1` (centres undefined), for which the EC50 was inactive: > 30 µM.

`CC(=O)Nc1nnc(CSCc2ccc(F)cc2)s1`: the EC50 is inactive: > 30 µM.

For `Cc1cc(N2CCC(C)CC2)nc(-c2ccccc2O)n1`, the EC50 was inactive: > 30 µM.

As to `O=Cc1ccc(N2CCCC2)c([N+](=O)[O-])c1`, the EC50 is inactive: > 30 µM.

In the case of `COC(=O)c1ccc(NC(=O)CCN2CCN(Cc3ccccc3)CC2)cc1`, the EC50 is inactive: > 30 µM.

For the molecule `O=C(CCc1ccccc1)Nc1ncc([N+](=O)[O-])s1`, the EC50 is inactive: > 30 µM.

For the molecule `CN(C)CC(=O)N1c2ccccc2Sc2ccc(Cl)cc21`, the EC50 is inactive: > 30 µM.

For the molecule `CCCC1=C(C(=O)OCC)C(c2sccc2C)n2ncnc2N1` (centres undefined), the EC50 was inactive: > 30 µM.

For `COc1ccc(-n2c(=O)c3c4c(sc3n3c(=S)[nH]nc23)CCCC4)cc1`, the EC50 was inactive: > 30 µM.

Consider `O=S1(=O)CC2SC(=S)N(c3ccccc3)C2C1` (centres undefined), for which the EC50 is inactive: > 30 µM.

With `CCCc1cc(=O)[nH]c(SCCOc2ccc(OCC)cc2)n1`, the EC50 was inactive: > 30 µM.

As to `CN1CCN(CCCNC(=O)Nc2ccc([N+](=O)[O-])cc2)CC1`, the EC50 was inactive: > 30 µM.

On to `Cc1ccc(C(=O)N/N=C\c2ccc(-c3ccc(Cl)c(Cl)c3)o2)cn1`, for which the EC50 is inactive: > 30 µM.

Consider `CCOc1ccccc1N1CCN(S(=O)(=O)c2cc(C)ccc2OC)CC1`, for which the EC50 is inactive: > 30 µM.

As for `Cc1onc(-c2ccccc2)c1C(=O)n1cccn1`, the EC50 was inactive: > 30 µM.

For `O=C(Nc1ccccn1)C(=O)Nc1ccccn1`, the EC50 was inactive: > 30 µM.

As to `O=C(O)/C=C/c1cn(-c2ccccc2)nc1-c1cccc([N+](=O)[O-])c1`, the EC50 was inactive: > 30 µM.

As for `CC(=O)Nc1cccc(Nc2nc(-c3ccccc3)nc3ccccc23)c1`, the EC50 was inactive: > 30 µM.

For the molecule `COc1ccc(CNCCC(c2ccc(F)cc2)c2ccc(OC)cc2)cc1` (centres undefined), the EC50 was inactive: > 30 µM.

`COC(=O)c1c(N)c(C#N)c2n1CCCCC2`: the EC50 was inactive: > 30 µM.

Consider `Nc1ncnc2c1ncn2C1OC(COP(=O)(O)O)C(O)C1O` (centres undefined), for which the EC50 is inactive: > 30 µM.

With `CCOC(=O)c1c(C)[nH]c(C)c1C(=O)CN1C(=O)NC(CC(C)C)C1=O` (centres undefined), the EC50 is inactive: > 30 µM.

Turning to `CSc1nc(NCC(C)C)c2c3c(sc2n1)CN(C)CC3`, the EC50 is inactive: > 30 µM.

As for `CC1CCN(c2oc(-c3ccccc3Cl)nc2C#N)CC1`, the EC50 was inactive: > 30 µM.

For the molecule `COc1cc(/C=N/NC(=O)c2sc(N)c(C#N)c2C)ccc1O`, the EC50 is inactive: > 30 µM.

Turning to `CCn1c(/C=C/N(C(C)=O)c2ccccc2)[n+](CC)c2ccc(Cl)cc21`, the EC50 is inactive: > 30 µM.

Regarding `COc1cc(C(=O)OCC(=O)NC(N)=O)cc(CN2C(=O)c3ccccc3C2=O)c1OC`, the EC50 is inactive: > 30 µM.

Turning to `CN1CCN(c2ccccc2NC(=O)c2ccc(Br)o2)CC1`, the EC50 was inactive: > 30 µM.

On to `Cc1ccc(SCCc2ccc(C)nc2)cc1`, for which the EC50 was inactive: > 30 µM.

Regarding `O=C(CN1C(=O)COc2ccccc21)Nc1ccccc1F`, the EC50 is inactive: > 30 µM.

As to `O=[N+]([O-])c1cc(/C=N/n2cnnc2)ccc1N1CCCC1`, the EC50 was inactive: > 30 µM.

With `CCNc1ccc(S(=O)(=O)N(C)C)cc1NCC(=O)Nc1ccc(Br)cc1F`, the EC50 is inactive: > 30 µM.

Regarding `O=C(N1CCN(c2ccccc2F)CC1)C12CC3CC(CC(C3)C1)C2`, the EC50 was inactive: > 30 µM.

Take `CCCCc1cc(=O)oc2cc(C)cc(O)c12`: the EC50 was inactive: > 30 µM.

Regarding `CCN(CC)C(=O)COC(=O)c1ccc(O)cc1`, the EC50 is inactive: > 30 µM.

On to `Nc1nc(NCCN2CCOCC2)nc(NCc2ccccc2)c1[N+](=O)[O-]`, for which the EC50 is inactive: > 30 µM.

Regarding `CCn1c(SCC(=O)Nc2ccccc2)nnc1C1CCCCC1`, the EC50 was inactive: > 30 µM.

In the case of `Cc1ccc(S(=O)(=O)N2CCN(CC(=O)N/N=C/c3ccco3)CC2)cc1`, the EC50 is inactive: > 30 µM.

In the case of `O=C(c1cccs1)c1coc2ccc(O)c(CN(CCO)CCO)c12`, the EC50 is inactive: > 30 µM.

With `Nc1nnnn1/N=C/c1ccc(N2CCCCC2)c([N+](=O)[O-])c1`, the EC50 is inactive: > 30 µM.

As to `NS(=O)(=O)c1ccc(Nc2nc(-c3ccc(O)cc3O)cs2)cc1`, the EC50 is inactive: > 30 µM.

Take `COc1ccc(C(=O)c2coc3ccc(O)cc23)cc1`: the EC50 was inactive: > 30 µM.

Consider `O=C1NC(=Nc2ccccc2)S/C1=C\c1cccnc1`, for which the EC50 was inactive: > 30 µM.

Turning to `COc1nc(NCCN2CCOCC2)nc(Nc2ccc([N+](=O)[O-])cc2)n1`, the EC50 is inactive: > 30 µM.

Turning to `COc1ccccc1Nc1nc(NCCO)nc(N)c1[N+](=O)[O-]`, the EC50 is inactive: > 30 µM.

On to `CCc1n[nH]c(=S)n1/N=C/C(C)=C\c1ccccc1`, for which the EC50 was inactive: > 30 µM.

On to `COc1ccc2c(c1)C(=O)C(=O)N2`, for which the EC50 is inactive: > 30 µM.

Consider `CNc1nc(N)c([N+](=O)[O-])c(Nc2cccc(Cl)c2)n1`, for which the EC50 is inactive: > 30 µM.

With `COc1ccc2nc3c(cc2c1)c(NC(=O)C1CCCO1)nn3CC(C)C` (centres undefined), the EC50 was inactive: > 30 µM.

On to `CCOc1ccc2ncc(C(=O)c3ccc(OC)cc3)c(N3CCN(CC)CC3)c2c1`, for which the EC50 is inactive: > 30 µM.

Consider `CCN(CC)Cc1c(C(=O)N/N=C/c2cccs2)nnn1-c1nonc1N`, for which the EC50 is inactive: > 30 µM.

For the molecule `Cc1cc(NC(=O)c2noc3c2CCc2ccccc2-3)n(-c2ccccc2)n1`, the EC50 was inactive: > 30 µM.

As to `NC1=NC(=Nc2ccccc2)c2ccccc21`, the EC50 was inactive: > 30 µM.

For `O=C(COc1ccccc1[N+](=O)[O-])N/N=C/c1cccs1`, the EC50 is inactive: > 30 µM.
